PubChem BioAssay AID1224828, NIAID – 2016

- Aim: 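Find genes required for NF-kappaB p65 moving into the nucleus after LPS in mouse macrophages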 (primary screen)
- Cell system: mouse RAW264.7 G9 macrophage reporter cells (GFP-p65, Tnf promoter-mCherry)
- Reagents: siRNA pool against mouse genes, 100 nM
- Timing: 2 days siRNA transfection, then 40 min LPS before fixation
- Challenge: LPS (Salmonella minnesota R595) at 10 ng/ml
- Read-out: 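Microscopy ratio of nuclear to perinuclear-ring GFP-p65 signal, scaled to the plate median; gene score is the average of two replicate robust z-scores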
- Reading the numbers: p65 translocation robust z-score: higher = more nuclear NF-kappaB p65 after LPS than the plate median; nuclear/cytoplasmic p65 ratio: higher = more nuclear NF-kappaB p65
- Rule for the call: 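Called active when z exceeds 3.3 or falls under -1.56 (median of Tlr4 controls), giving activity score of at least 50; no calls for control wells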
- Meaning of the calls: active = hit (p65 shift raised or lowered); inactive = no clear change
In all, the deposit lists about 17,000 reagents; shown is an unselected part. Over the whole deposit, 762 (4.5%) were called active. 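Active calls include both raised and lowered p65 entry, mostly lowered; wells with fewer than 50 cells lack a z-score.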 The raw values are shown without normalisation. Reagent sequences are not shown.

Gene	p65 translocation robust z-score	nuclear/cytoplasmic p65 ratio, rep 1	nuclear/cytoplasmic p65 ratio, rep 2	low cell count flag	call
Tmem37 (transmembrane protein 37)	-0.18	1.32	1.23	enough cells to score	inactive
Pwp2 (PWP2 periodic tryptophan protein homolog (yeast))	-0.43	1.31	1.18	enough cells to score	inactive
Alpi (alkaline phosphatase, intestinal)	-0.06	1.61	1.6	enough cells to score	inactive
Gsta1 (glutathione S-transferase, alpha 1 (Ya))	-1.09	1.59	1.28	enough cells to score	inactive
Treml6 (triggering receptor expressed on myeloid cells-like 6)	1.19	1.77	2.03	enough cells to score	inactive
Zbtb38 (zinc finger and BTB domain containing 38)	-0.6	1.3	1.26	enough cells to score	inactive
Aass (aminoadipate-semialdehyde synthase)	-0.21	1.63	1.53	enough cells to score	inactive
Sycp2 (synaptonemal complex protein 2)		1.32	1.1	fewer than 50 cells per well; well left out of scoring	inactive
Pagr1a (PAXIP1 associated glutamate rich protein 1A)		1.37	1.2	fewer than 50 cells per well; well left out of scoring	inactive
Ap1m1 (adaptor-related protein complex AP-1, mu subunit 1)	-1.06	1.41	1.56	enough cells to score	inactive
Arl2 (ADP-ribosylation factor-like 2)	-0.21	1.67	1.5	enough cells to score	inactive

Reformatted: results already given.
| Gene | p65 translocation robust z-score | nuclear/cytoplasmic p65 ratio, rep 1 | nuclear/cytoplasmic p65 ratio, rep 2 | low cell count flag | call |
| --- | --- | --- | --- | --- | --- |
| Gsta1 (glutathione S-transferase, alpha 1 (Ya)) | -1.09 | 1.59 | 1.28 | enough cells to score | inactive |
| Treml6 (triggering receptor expressed on myeloid cells-like 6) | 1.19 | 1.77 | 2.03 | enough cells to score | inactive |

Further entries:
Gene	p65 translocation robust z-score	nuclear/cytoplasmic p65 ratio, rep 1	nuclear/cytoplasmic p65 ratio, rep 2	low cell count flag	call
Allc (allantoicase)	-0.67	1.53	1.56	enough cells to score	inactive
Slc26a7	-0.11	1.3	1.24	enough cells to score	inactive
Sync (syncoilin)	-0.23	1.33	1.09	enough cells to score	inactive
Fbxw15 (F-box and WD-40 domain protein 15)	-1.6	1.52	1.27	enough cells to score	active
Gtpbp6 (GTP binding protein 6 (putative))	-0.88	1.28	1.18	enough cells to score	inactive
Sycp3 (synaptonemal complex protein 3)	1.07	1.47	1.34	enough cells to score	inactive
Il17f (interleukin 17F)	0.1	1.58	1.43	enough cells to score	inactive
Reep6 (receptor accessory protein 6)		1.58	1.49	fewer than 50 cells per well; well left out of scoring	inactive
Or8k40 (olfactory receptor family 8 subfamily K member 40)	1.02	1.83	1.71	enough cells to score	inactive
Desi2 (desumoylating isopeptidase 2)		1.32	1.04	fewer than 50 cells per well; well left out of scoring	inactive
Nr3c2 (nuclear receptor subfamily 3, group C, member 2)	0.61	1.51	1.51	enough cells to score	inactive
Slc75a1		1.35	1.34	fewer than 50 cells per well; well left out of scoring	inactive
Pde10a (phosphodiesterase 10A)	0.21	1.53	1.22	enough cells to score	inactive
